Experimental findings from the supplement of paper PMC12819154, “High-throughput peptide-centric local stability assay extends protein–ligand identification to membrane proteins, tissues and bacteria” (Nature Structural & Molecular Biology, 2025) are described below.

By UniProt entry, the sequences of proteins in these tests, tags left out. Where a name states a change or a piece, a line headed by the entry shows the natural chain unless it says otherwise.
UniProt Q8BLN6: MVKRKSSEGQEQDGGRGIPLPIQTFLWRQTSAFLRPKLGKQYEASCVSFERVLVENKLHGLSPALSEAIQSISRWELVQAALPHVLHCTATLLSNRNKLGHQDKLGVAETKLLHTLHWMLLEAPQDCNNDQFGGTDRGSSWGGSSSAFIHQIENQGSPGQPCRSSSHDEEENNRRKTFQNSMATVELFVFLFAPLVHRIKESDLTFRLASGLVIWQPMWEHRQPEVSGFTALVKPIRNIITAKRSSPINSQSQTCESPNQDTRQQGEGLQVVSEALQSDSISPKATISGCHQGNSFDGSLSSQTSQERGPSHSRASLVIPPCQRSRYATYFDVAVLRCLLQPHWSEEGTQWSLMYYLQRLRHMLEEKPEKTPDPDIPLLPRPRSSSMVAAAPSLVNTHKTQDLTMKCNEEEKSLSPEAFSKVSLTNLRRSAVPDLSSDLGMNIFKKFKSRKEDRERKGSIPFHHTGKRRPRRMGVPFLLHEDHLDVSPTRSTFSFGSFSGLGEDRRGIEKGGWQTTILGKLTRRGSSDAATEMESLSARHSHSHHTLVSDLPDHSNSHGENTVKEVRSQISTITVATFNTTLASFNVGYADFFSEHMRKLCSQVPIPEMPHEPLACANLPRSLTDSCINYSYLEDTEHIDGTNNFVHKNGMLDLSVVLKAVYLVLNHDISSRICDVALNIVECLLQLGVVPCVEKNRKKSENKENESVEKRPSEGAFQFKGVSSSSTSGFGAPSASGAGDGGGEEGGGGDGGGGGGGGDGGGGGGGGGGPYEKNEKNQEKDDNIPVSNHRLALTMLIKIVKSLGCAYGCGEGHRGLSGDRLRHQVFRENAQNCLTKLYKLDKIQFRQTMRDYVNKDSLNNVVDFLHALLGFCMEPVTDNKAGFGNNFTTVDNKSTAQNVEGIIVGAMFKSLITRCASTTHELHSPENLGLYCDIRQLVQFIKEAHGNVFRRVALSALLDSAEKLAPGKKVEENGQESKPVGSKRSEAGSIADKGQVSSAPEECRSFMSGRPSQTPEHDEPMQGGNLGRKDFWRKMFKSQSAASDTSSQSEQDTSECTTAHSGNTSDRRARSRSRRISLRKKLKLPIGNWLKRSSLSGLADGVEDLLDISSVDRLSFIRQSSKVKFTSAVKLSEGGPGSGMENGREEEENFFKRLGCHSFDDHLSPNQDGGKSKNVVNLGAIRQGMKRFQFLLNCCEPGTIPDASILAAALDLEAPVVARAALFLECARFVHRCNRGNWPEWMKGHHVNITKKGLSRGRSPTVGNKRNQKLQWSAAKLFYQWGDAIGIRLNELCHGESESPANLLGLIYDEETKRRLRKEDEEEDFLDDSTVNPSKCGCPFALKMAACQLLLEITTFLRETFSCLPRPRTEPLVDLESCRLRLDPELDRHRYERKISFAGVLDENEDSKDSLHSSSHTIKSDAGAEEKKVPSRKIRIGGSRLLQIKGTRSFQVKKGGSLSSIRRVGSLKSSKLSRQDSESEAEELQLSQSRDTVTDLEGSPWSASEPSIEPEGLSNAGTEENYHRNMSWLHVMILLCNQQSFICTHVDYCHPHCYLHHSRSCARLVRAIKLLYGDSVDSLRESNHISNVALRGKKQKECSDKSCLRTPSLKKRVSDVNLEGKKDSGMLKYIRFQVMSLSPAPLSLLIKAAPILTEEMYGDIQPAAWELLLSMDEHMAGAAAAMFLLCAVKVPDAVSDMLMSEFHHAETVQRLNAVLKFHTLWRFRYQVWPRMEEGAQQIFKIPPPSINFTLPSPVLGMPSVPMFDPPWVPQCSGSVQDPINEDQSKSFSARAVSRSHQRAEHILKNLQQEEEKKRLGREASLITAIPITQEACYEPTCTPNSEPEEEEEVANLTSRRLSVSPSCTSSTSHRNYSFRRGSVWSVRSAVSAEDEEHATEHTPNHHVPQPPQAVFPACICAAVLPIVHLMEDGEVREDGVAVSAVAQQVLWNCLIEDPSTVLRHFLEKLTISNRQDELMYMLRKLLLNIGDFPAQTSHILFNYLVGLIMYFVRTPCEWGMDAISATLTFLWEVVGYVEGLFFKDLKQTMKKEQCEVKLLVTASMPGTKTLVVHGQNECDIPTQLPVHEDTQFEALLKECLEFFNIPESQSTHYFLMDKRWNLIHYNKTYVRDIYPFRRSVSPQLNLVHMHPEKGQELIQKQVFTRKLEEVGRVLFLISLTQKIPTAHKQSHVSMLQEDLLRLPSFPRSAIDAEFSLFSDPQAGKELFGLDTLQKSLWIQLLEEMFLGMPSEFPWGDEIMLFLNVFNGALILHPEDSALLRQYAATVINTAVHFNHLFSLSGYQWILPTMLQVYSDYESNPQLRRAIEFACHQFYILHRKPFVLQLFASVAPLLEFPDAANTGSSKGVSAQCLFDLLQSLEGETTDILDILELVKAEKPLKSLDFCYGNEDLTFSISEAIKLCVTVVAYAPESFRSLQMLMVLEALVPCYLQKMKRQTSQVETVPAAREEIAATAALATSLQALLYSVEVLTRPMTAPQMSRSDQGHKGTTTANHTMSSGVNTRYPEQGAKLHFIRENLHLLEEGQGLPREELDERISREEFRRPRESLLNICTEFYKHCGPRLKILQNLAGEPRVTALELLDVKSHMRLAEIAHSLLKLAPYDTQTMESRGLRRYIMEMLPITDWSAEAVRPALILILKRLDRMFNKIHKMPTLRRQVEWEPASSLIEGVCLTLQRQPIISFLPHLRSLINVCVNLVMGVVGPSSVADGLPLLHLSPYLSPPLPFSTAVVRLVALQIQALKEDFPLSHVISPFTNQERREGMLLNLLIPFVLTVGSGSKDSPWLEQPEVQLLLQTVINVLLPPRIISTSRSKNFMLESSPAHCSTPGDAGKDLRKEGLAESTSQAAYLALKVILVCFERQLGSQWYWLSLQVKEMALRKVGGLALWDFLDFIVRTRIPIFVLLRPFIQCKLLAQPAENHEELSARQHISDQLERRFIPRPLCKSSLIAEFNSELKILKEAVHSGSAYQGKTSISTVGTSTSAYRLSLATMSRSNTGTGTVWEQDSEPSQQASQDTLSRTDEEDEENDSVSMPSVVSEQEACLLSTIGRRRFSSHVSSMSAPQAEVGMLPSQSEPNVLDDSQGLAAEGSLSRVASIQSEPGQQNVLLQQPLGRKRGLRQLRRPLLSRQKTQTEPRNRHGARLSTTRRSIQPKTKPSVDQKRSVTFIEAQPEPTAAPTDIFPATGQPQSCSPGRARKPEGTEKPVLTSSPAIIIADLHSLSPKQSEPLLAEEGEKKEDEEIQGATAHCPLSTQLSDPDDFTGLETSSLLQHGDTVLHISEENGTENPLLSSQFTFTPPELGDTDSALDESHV
UniProt Q8BP27: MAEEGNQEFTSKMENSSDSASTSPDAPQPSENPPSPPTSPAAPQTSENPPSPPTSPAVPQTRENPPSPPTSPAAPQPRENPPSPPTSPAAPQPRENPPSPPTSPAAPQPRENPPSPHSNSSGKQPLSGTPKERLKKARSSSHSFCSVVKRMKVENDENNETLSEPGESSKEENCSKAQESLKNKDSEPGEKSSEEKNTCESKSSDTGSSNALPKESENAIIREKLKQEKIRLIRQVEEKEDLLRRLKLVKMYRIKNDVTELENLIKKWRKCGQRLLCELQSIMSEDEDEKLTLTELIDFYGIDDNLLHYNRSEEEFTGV
UniProt Q8CCM6: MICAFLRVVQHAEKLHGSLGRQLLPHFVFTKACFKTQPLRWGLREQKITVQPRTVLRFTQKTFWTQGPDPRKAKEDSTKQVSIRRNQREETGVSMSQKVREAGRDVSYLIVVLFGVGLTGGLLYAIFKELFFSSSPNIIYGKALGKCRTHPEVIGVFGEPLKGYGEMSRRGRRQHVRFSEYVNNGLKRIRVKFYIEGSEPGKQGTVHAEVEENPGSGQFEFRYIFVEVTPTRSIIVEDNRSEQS
UniProt Q8BYW1: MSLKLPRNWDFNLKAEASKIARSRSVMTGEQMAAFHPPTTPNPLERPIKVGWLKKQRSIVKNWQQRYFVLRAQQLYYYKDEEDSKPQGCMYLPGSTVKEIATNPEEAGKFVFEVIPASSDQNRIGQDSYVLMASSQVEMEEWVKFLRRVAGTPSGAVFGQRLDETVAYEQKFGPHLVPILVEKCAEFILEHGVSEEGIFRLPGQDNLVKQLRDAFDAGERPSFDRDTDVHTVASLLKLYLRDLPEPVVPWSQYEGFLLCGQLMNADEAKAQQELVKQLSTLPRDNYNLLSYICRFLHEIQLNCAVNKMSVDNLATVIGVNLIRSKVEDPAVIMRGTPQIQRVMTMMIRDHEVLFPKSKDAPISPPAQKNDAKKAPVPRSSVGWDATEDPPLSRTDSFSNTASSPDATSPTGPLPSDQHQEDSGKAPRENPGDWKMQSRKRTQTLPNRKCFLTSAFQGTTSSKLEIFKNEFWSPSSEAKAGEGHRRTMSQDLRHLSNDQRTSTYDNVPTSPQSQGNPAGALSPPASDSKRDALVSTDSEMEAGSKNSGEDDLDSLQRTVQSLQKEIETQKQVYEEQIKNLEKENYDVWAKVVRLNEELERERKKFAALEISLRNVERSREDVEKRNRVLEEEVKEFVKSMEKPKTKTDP
UniProt Q8BM88: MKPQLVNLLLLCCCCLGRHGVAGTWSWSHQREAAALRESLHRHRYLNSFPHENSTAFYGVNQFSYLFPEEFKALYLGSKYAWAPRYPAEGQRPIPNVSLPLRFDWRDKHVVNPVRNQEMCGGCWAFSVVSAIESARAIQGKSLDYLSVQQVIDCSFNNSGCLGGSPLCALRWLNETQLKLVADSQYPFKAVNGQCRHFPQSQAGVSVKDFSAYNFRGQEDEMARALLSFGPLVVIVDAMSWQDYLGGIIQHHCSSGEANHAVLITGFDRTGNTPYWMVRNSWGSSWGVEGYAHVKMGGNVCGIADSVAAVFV
UniProt Q8BVU5: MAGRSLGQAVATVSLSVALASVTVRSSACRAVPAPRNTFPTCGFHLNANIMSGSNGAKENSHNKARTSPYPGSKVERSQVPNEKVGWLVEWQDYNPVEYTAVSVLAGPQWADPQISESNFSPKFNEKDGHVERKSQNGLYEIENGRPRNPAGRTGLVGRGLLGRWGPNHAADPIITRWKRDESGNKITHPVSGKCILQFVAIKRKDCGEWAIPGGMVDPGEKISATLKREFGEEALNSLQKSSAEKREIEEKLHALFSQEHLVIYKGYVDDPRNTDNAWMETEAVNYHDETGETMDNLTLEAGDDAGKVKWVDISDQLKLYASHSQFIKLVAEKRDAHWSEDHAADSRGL
UniProt Q8BUV3: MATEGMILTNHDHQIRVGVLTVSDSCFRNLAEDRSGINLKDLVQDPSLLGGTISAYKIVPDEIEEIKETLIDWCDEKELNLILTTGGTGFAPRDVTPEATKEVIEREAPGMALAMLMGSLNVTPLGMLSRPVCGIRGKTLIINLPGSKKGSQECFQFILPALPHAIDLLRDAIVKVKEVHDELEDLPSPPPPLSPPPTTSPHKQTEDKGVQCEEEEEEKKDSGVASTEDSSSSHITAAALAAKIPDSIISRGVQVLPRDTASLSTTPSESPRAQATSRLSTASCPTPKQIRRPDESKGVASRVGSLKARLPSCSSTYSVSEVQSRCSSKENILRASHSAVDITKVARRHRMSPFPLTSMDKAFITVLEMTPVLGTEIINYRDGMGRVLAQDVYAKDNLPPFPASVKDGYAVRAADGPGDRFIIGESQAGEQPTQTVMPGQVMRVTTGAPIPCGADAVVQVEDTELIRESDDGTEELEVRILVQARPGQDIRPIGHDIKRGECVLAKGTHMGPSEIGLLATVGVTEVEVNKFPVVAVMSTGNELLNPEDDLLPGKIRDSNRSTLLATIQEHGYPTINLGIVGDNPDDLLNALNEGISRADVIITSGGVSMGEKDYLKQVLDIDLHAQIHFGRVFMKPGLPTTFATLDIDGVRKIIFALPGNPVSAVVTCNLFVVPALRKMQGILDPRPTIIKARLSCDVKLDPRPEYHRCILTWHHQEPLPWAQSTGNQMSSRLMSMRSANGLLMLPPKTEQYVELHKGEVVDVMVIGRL
UniProt Q8CCI5: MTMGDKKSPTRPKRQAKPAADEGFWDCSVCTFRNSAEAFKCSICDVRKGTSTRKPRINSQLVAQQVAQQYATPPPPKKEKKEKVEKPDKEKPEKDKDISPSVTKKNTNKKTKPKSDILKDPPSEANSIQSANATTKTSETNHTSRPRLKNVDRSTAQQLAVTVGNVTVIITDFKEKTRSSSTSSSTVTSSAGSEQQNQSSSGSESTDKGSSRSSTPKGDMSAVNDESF
UniProt Q8CFV4: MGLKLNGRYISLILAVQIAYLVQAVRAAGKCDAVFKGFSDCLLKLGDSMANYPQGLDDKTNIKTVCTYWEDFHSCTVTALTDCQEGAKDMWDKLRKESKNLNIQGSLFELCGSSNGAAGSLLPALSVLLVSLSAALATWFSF
UniProt Q8BGT7: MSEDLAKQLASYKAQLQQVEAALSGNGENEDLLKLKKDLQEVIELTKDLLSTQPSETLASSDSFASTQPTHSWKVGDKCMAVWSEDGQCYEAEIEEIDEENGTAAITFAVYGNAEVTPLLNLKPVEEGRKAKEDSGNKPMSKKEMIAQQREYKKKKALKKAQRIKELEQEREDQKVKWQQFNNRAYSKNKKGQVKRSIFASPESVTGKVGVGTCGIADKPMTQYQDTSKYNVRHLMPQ

The other results are listed elsewhere or left out. Most values lie at the level of the controls, where differences are scatter.

Compound in the test: CN[C@@H]1C[C@H]2O[C@@](C)([C@@H]1OC)n1c3ccccc3c3c4c(c5c6ccccc6n2c5c31)C(=O)NC4 [staurosporine]
Put plainly: log2 fold change of pooled soluble protein (PISA), ligand vs vehicle (log2 ratio); higher = more thermally stabilized. The conditions noted are these: ligand concentration: 20 uM; assay format: PISA pool 52.9/55.5/58.6 C.
UniProt Q8BHD7: the “log2 fold change of pooled soluble protein” value (shortened to “log2 fold change”) was -0.154.
With UniProt Q8BI72 the figure was 0.045.
With UniProt Q8BU11 the figure was 0.119; with UniProt Q8BLN6, -0.194.
Take UniProt Q8BX10: the “log2 fold change” value worked out at 0.00445.
With UniProt Q8C7H1, the “log2 fold change” value is -0.272.
The result for UniProt Q8BP27 reads -0.166.
The result for UniProt Q8BRV5 reads 0.14; that for UniProt Q8CCM6, 0.0694.
As for UniProt Q8BWW4, the “log2 fold change” value was -0.0532.
With UniProt Q8BKZ9 the figure was -0.0393.
Turning to UniProt Q8BTY1, the “log2 fold change” value is -0.0861.
The result for UniProt Q8BHN1 reads 0.138; that for UniProt Q8BVQ5, 0.00199; that for UniProt Q8C5W0, -0.0577.
With UniProt Q8BPT6 the figure was -0.123; with UniProt Q8BY89, -0.0361; with UniProt Q8BYW1, 0.154.
UniProt Q8BM88: the “log2 fold change” value is -0.354.
Turning to UniProt Q8CG76, the “log2 fold change” value was -0.0622.
The result for UniProt Q8BK30 reads 0.0944; that for UniProt Q8BU04, -0.0823; that for UniProt Q8BVU5, 0.00727.
With UniProt Q8CBY8 the figure was -0.00125.
Regarding UniProt Q8BX70, the “log2 fold change” value was -0.018.
With UniProt Q8CCS6 the figure was -0.0755; with UniProt Q8BWQ1, 0.124; with UniProt Q8BLY1, 0.0284.
Take UniProt Q8BUV3: the “log2 fold change” value was -0.0422.
With UniProt Q8CCI5 the figure was 0.616.
As for UniProt Q8BN82, the “log2 fold change” value is -0.218.
Consider UniProt Q8CFV4, for which the “log2 fold change” value was -0.0508.
Consider UniProt Q8BGT7, for which the “log2 fold change” value is -0.0705.
With UniProt Q8BVI4 the figure was -0.0974; with UniProt Q8BH51, -0.0562.
Turning to UniProt Q8BTW3, the “log2 fold change” value is -0.0138.
